Data as given in PubChem BioAssay AID1159578 (Peter MacCallum Cancer Centre, 2015)
Here is one part, drawn at random, of about 18,000 reagents. About 1,030 of them (5.7%) count as active. 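Inactive calls also include pools with fewer than 3300 nuclei, whose migration was not assessed.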 Raw values are not corrected between plates. Further read-outs or replicates are left out here.

Aim: 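Knock-downs that alter how fast lymphatic endothelial cells migrate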 (primary screen)
Cells: human lymphatic endothelial cells
Knock-down reagent: siRNA pool against human genes, 40 nM
Timing: 48 h after transfection
Measurement: 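High-content imaging of dye-stained cells in a scratch assay measures filled wound area and nuclei per well; duplicate means given as ratio to mock and robust z-score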
Reading the numbers: migration robust z-score: higher = faster migration into the scratch; nuclei per well: higher = more cells in the well
Active means: 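Migration changed when robust z exceeds 2 or falls below -2 and mean nuclei number is at least 3300; otherwise not called changed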
Meaning of the calls: active = migration changed; inactive = no migration change, or too few cells

| gene symbol | migration robust z-score | nuclei per well, duplicate mean | outcome |
| --- | --- | --- | --- |
| PCDH12 (protocadherin 12) | 0.04 | 5202 | inactive |
| ANKS1A (ankyrin repeat and sterile alpha motif domain containing 1A) | -1.92 | 6646 | inactive |
| PTCD1 (pentatricopeptide repeat domain 1) | -0.58 | 6106 | inactive |
| ZNF675 (zinc finger protein 675) | -0.2 | 5830 | inactive |
| WWC3 (WWC family member 3) | -0.56 | 3169 | inactive |
| LRRC3 (leucine rich repeat containing 3) | -0.82 | 2826 | inactive |
| TMEM42 (transmembrane protein 42) | 0.44 | 5795 | inactive |
| NUAK2 (NUAK family kinase 2) | -2.1 | 3606 | active |
| CCL16 (C-C motif chemokine ligand 16) | 1.48 | 6799 | inactive |
| SLC25A40 | -0.66 | 4861 | inactive |
| CLINT1 (clathrin interactor 1) | 1.25 | 6976 | inactive |

Limited to “migration robust z-score” (2 entries from above):
PTCD1 (pentatricopeptide repeat domain 1)	-0.58
ZNF675 (zinc finger protein 675)	-0.2

Additional results follow:
| gene symbol | migration robust z-score | nuclei per well, duplicate mean | outcome |
| --- | --- | --- | --- |
| HIPK3 (homeodomain interacting protein kinase 3) | -5.16 | 2930 | inactive |
| CLEC16A (C-type lectin domain containing 16A) | -0.2 | 6107 | inactive |
| PRSS27 (serine protease 27) | -0.02 | 5549 | inactive |
| TENT5A (terminal nucleotidyltransferase 5A) | 0.68 | 5889 | inactive |
| SCG5 (secretogranin V) | -0.24 | 6276 | inactive |
| CNOT2 (CCR4-NOT transcription complex subunit 2) | -0.27 | 5608 | inactive |
| PSMA6 (proteasome 20S subunit alpha 6) | -0.42 | 5244 | inactive |
| ZNF511 (zinc finger protein 511) | -0.05 | 5674 | inactive |
| MRPS23 (mitochondrial ribosomal protein S23) | 1.01 | 5708 | inactive |
| NEURL3 (neuralized E3 ubiquitin protein ligase 3) | -1.5 | 5648 | inactive |
| VASH2 (vasohibin 2) | 0.92 | 6020 | inactive |
| SNIP1 (Smad nuclear interacting protein 1) | -1.07 | 4722 | inactive |
